Binding screen against folded nucleic acids

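The test is a small-molecule microarray: each compound is printed twice on a reactive slide, and binding shows as fluorescence of the labelled oligonucleotide after washing. For the PreQ1, TPP and SAM-II riboswitches the laboratory earlier reported (doi:10.1038/s41467-019-09493-3) 1 µM RNA, 2 h, and a rule that included a mean Z-score above 3 (spot signal-to-noise against the whole library), a score well above that on a control array, and duplicate spots agreeing (coefficient of variation under 100). The data file gives only the calls; its cut-offs may differ, and compounds hitting several targets are kept. These are primary screening calls, not affinities; a compound without a hit may have attached poorly or may still bind in solution.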 A compound is marked hit if it was called a hit and no hit if it was screened but was not. Compounds were drawn at random from those tested, without regard to their results. A target missing from an entry has no call listed here.

Targets, with sequences 5′ to 3′:
T1: SAM-II riboswitch RNA pseudoknot, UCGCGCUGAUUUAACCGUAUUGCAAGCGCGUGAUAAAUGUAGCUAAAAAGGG. About 200 hits among about 21,000 compounds.
T2: TPP riboswitch RNA three-way junction, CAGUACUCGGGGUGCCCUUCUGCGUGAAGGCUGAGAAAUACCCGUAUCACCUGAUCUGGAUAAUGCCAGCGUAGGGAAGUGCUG. About 160 hits among about 24,000 compounds.
T3: PreQ1 riboswitch RNA pseudoknot, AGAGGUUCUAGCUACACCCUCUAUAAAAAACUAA. From B. subtilis. About 170 hits among about 24,000 compounds.

With CCc1nnc(NC2=NS(=O)(=O)C(c3ccccc3)=C2C)s1 the screen gave T2: no hit; T3: no hit.
With CCN(CC)C(=O)c1ccc(C2=CC3(CCNCC3)Oc3cccc(O)c32)cc1 the screen gave T1: no hit; T2: no hit; T3: no hit.
With C=CCN1C(=O)C2(c3ccccc31)c1c(oc3ccc(C)cc3c1=O)C(=O)N2CCCO (stereo not given) the screen gave T2: hit; T3: hit.
With Cc1ccc(CNC(=O)CN(C)S(=O)(=O)c2cc(Br)cnc2N)cc1 the screen gave T2: no hit; T3: no hit.
With CSCCC(Nc1ncnc2ccccc12)C(=O)O (stereo not given) the screen gave T1: no hit; T2: no hit; T3: no hit.
With CCCCOc1ccc(C2C(C#N)=C(N)Oc3[nH]nc(CCC)c32)cc1 (stereo not given) the screen gave T1: no hit; T2: no hit; T3: no hit.
With COCC(C)n1c(CCCC(=O)N2CCCNCC2)nc2cccnc21 (stereo not given) the screen gave T1: no hit; T2: no hit; T3: no hit.
With CCN(Cc1ccccc1)C(=O)c1sc2nc(C)c(C)c(C)c2c1N the screen gave T1: no hit; T2: no hit; T3: no hit.
With N#CC1=C(N)Oc2[nH]nc(-c3ccncc3)c2C1c1ccc(F)cc1 (stereo not given) the screen gave T1: no hit; T2: no hit; T3: no hit.
With CC[C@@]1(O)CCN(C(=O)c2csc(-c3cccnc3)n2)C[C@H]1O the screen gave T1: no hit; T2: no hit; T3: no hit.
With COc1ccc2c(c1OC)C(=O)OC2Nc1nccs1 (stereo not given) the screen gave T1: no hit; T2: no hit; T3: no hit.
With CN1CCCN(C(=O)c2cccc(-c3ccc(C=C4C(=O)Nc5ccc(Cl)cc54)o3)c2)CC1 the screen gave T1: no hit; T2: no hit; T3: no hit.
With CC(=O)c1cccc(Nc2cc(C)nc3nc(-c4ccc(Cl)cc4)nn23)c1 the screen gave T2: no hit; T3: no hit.
With c1ccc(-c2nc(CNC3CCOC4(CCOCC4)C3)cs2)cc1 (stereo not given) the screen gave T1: no hit; T2: no hit; T3: no hit.
With COc1ccc(CNC2=CC(=O)OC23CCCCC3)cc1 the screen gave T1: no hit; T2: no hit; T3: no hit.
With CCOc1ccc(Nc2nc(SC)nc3c2CCC3)cc1 the screen gave T2: no hit; T3: no hit.
With Fc1ccc(Nc2ncnc3c2nc2n3CCCCC2)c(F)c1 the screen gave T2: no hit; T3: no hit.
With OCCOc1ccc(CN2CC[C@@](O)(c3ccccc3)[C@H]3CCCC[C@@H]32)cc1 the screen gave T1: no hit; T2: no hit; T3: no hit.
With COc1ccc(-c2cc(Nc3ccccc3C(F)(F)F)nc(C)n2)cc1 the screen gave T2: no hit; T3: no hit.
With O=C(NCCS(=O)(=O)c1ccc(C(F)(F)F)cn1)c1ccc(Cl)cc1 the screen gave T1: no hit; T2: no hit; T3: no hit.
With O=C(O)C(=O)O.c1ccc(-n2cccc2CNC2CCCCC2)cc1 the screen gave T1: no hit; T2: no hit; T3: no hit.
With COc1ccc(C(CC(=O)c2cccs2)SCCO)cc1OC (stereo not given) the screen gave T1: no hit; T2: no hit; T3: no hit.
With Cc1nc(N2CCC(CO)(Cc3ccccc3C(F)(F)F)CC2)no1 the screen gave T1: no hit; T2: no hit; T3: no hit.
With O=C(O)C(=O)O.OC(CN1CCN(Cc2ccccc2)CC1)CN1c2ccccc2Sc2ccccc21 (stereo not given) the screen gave T1: no hit; T2: no hit; T3: no hit.
With CCN1C(=O)C2(C(C#N)=C(N)OC(C)=C2C(=O)OC)c2ccccc21 (stereo not given) the screen gave T1: no hit; T2: no hit; T3: no hit.
With CCOC(=O)c1cnc2ccc(C(=O)OC)cc2c1Nc1ccccc1 the screen gave T1: no hit; T2: no hit; T3: no hit.
With COc1ccc(-c2noc(Nc3ccc(F)cc3F)n2)cc1 the screen gave T2: hit; T3: hit.
With OC1(CNCCCNc2cccnc2)CCNC1 (stereo not given) the screen gave T1: no hit; T2: no hit; T3: no hit.

The last 3 entries again:

* CCOC(=O)c1cnc2ccc(C(=O)OC)cc2c1Nc1ccccc1 : T1: no hit; T2: no hit; T3: no hit
* COc1ccc(-c2noc(Nc3ccc(F)cc3F)n2)cc1 : T2: hit; T3: hit
* OC1(CNCCCNc2cccnc2)CCNC1 (stereo not given) : T1: no hit; T2: no hit; T3: no hit

Calls as published in the ROBIN set (doi:10.1002/anie.202211358).